Here are results for 2 substances from paper PMC12961538.

Amino acid sequences for entries named in this document (tags omitted). Residues count along the entry.
UniProt Q62469, residues 27-1178: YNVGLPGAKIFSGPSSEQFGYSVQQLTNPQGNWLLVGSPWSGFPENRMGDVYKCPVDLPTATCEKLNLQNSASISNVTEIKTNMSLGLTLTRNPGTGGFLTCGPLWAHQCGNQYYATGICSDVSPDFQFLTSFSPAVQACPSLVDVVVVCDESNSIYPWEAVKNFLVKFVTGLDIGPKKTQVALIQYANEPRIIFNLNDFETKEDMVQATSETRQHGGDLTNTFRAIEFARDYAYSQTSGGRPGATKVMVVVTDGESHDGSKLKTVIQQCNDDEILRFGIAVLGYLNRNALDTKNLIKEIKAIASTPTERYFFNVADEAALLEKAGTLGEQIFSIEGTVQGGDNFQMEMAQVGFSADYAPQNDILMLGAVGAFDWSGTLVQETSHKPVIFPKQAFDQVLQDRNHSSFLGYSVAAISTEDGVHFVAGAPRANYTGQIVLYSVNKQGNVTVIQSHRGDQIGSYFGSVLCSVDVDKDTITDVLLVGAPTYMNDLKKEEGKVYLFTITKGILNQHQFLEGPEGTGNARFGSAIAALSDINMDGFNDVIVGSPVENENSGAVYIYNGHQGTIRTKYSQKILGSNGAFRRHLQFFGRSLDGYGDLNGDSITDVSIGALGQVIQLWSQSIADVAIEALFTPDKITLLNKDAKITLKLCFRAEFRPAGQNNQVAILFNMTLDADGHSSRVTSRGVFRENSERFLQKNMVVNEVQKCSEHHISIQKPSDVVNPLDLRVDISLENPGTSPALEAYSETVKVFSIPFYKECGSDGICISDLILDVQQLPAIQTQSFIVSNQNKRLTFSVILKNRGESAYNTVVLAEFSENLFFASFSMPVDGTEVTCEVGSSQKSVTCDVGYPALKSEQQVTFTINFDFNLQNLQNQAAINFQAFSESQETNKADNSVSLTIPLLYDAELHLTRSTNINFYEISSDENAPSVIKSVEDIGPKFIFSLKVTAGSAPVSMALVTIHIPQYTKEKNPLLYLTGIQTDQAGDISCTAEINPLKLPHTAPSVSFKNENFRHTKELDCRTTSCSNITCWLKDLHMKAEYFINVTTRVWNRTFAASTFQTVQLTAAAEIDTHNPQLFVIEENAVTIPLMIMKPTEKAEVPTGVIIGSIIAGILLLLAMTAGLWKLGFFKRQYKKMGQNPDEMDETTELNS
UniProt P09055, residues 21-798: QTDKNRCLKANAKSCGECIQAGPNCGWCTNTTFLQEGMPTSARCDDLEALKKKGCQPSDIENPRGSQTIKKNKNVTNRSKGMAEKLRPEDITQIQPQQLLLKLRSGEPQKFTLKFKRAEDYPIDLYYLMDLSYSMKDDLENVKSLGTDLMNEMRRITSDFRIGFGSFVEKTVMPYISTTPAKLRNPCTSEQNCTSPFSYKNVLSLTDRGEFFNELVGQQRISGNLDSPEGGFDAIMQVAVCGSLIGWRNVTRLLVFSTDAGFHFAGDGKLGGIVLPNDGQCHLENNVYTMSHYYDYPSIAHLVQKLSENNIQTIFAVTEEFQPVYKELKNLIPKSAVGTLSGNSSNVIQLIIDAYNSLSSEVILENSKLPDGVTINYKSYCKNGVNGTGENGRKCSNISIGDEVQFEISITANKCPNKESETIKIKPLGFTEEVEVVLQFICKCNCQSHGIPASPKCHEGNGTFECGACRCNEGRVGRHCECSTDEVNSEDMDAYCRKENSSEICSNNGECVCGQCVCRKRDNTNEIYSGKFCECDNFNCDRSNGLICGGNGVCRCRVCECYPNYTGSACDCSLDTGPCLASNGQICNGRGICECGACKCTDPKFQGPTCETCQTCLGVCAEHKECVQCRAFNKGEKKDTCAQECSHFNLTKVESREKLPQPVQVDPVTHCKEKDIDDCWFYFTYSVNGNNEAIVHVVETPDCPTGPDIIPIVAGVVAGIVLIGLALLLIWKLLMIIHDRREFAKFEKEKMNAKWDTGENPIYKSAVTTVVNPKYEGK
UniProt P11835, residues 24-771: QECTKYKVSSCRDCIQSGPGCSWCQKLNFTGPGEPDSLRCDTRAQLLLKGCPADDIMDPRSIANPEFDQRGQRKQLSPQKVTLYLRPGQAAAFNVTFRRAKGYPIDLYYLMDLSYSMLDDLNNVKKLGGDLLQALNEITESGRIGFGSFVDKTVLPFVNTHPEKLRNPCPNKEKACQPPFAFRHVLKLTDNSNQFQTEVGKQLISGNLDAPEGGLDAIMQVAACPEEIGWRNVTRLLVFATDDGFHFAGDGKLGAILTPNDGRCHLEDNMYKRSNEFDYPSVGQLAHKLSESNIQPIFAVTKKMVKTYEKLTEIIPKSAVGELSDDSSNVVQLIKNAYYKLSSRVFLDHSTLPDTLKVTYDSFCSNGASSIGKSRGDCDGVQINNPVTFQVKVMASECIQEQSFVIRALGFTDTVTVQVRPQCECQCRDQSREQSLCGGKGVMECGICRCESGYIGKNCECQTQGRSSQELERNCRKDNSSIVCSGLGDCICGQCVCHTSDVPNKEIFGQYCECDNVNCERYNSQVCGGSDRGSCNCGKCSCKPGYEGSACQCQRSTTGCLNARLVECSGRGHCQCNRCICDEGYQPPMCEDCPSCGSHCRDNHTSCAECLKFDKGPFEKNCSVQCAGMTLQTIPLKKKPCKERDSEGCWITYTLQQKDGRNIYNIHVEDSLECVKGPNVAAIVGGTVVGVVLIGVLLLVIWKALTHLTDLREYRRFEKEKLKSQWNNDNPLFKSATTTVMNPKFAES

These are yes or no findings as the source states them, for the method shown. In cells and extracts the contact can be indirect. Some entries that bind do so weakly or less than the wild type.

The target of this assay is ITGA2 (mouse (endogenous in BMMs)) (UniProt Q62469). Kind of assay: co-IP; total protein extracts of BMMs; Protein A/G agarose beads with ITGA2 antibody (or IgG), reverse IP with ITGB1 or ITGB2 antibody; Western blot. (In general: Immunoblotting shows a protein as a band on a membrane.)

Take “ITGB1 (from UniProt P09055 21-798) (receptor)”: the binding result is on record as “binds”.
The result for “integrin receptor β2 subunit (ITGB2) (from UniProt P11835 24-771)” reads “binds”.
